Source: patent US5110927A (The United States of America as represented by the …, priority 1987, dated 1992)
Some entries share one result that the patent states for a list of compounds.

Test system: α1-adrenoceptor (3H-prazosin binding sites)
Experiment: displacement of 3H-prazosin from rat cerebral cortical (brain) membranes
Settings: discussion of Table 1
Experimental: IC50 values and apparent Ki values were determined as in Table 1.
Rat brain cortices were homogenized in approximately 30 volumes/wet weight of 50 mM Tris buffer, pH 7.4, containing 10 mM MgCl2 by use of a Polytron (setting 6 for 10 seconds). It should be noted that this buffer was used throughout the experimental procedures. The homogenate was centrifuged at 48,000×g for 10 minutes in a Sorvall RC-5B centrifuge. The resulting pellet was resuspended in buffer by use of a Polytron and recentrifuged. This process was repeated and the pellet was resuspended in approximately 200 volumes for affinity studies or 20 volumes for irreversibility experiments.
Specific binding was defined as the difference between total binding (measured in the absence of any ligand) and non-specific binding (measured in the presence of 10 microM phentolamine). Duplicate tubes were used for each condition. Reaction tubes were incubated for 30 minutes at 30° C., then diluted to 5 ml with ice cold buffer, and filtered under reduced pressure through Whatman GF/C glass fiber filters. The reaction tubes and filters were washed three additional times with buffer.

With `COc1cc2nc(N3CCN(C(=O)C(F)=Cc4ccccc4)CC3)nc(N)c2cc1OC` [Compound 20] as the molecule, how does the “affinity to alpha1-adrenoceptors (in words)” value (“affinity” for short) read?
Its value is “reduced affinity considerably”.

How did the “affinity” value turn out when `COc1cc2nc(N3CCN(C(=S)Nc4c(F)c(F)c(F)c(F)c4F)CC3)nc(N)c2cc1OC` [Compound 32] was run?
The value was “decreased the affinity”.

Which “affinity” value does the source give for `COc1cc2nc(N3CCN(C(=S)Nc4ccc(F)cc4)CC3)nc(N)c2cc1OC` [Compound 31] here?
The value was “decreased the affinity”.

Which “affinity” value does the source give for `COc1cc2nc(N3CCN(C(=O)C(=Cc4ccccc4)c4ccccc4)CC3)nc(N)c2cc1OC` [Compound 22] here?
Its value is “reduced affinity considerably”.

How did the “affinity” value turn out when `COC(=O)C=Cc1ccc(NC(=S)N2CCN(c3nc(N)c4cc(OC)c(OC)cc4n3)CC2)cc1` [Compound 37] was run?
The value was “decreased the affinity”.

With `COc1cc2nc(N3CCN(C(=S)Nc4ccc(NC(=S)N5CC5)cc4)CC3)nc(N)c2cc1OC` [Compound 36] as the molecule, how does the “affinity” value read?
Its value is “decreased the affinity”.

How did the “affinity” value turn out when `COc1cc2nc(N3CCN(C(=O)C(=Cc4ccccc4)N=[N+]=[N-])CC3)nc(N)c2cc1OC` [Compound 21] was run?
Its value is “reduced affinity considerably”.

Same assay, conditions: discussion of Table 1; listed as compound 33

`COc1cc2nc(N3CCN(C(=S)Nc4ccc(N=[N+]=[N-])cc4)CC3)nc(N)c2cc1OC` [Compound 33] was tested. Which “affinity” value did it give?
The value was “decreased the affinity”.
